The values that follow come from PubChem BioAssay AID445 (National Center for Advancing Translational Sciences (NCATS), 2006).

As usually defined, the AC50 is the concentration giving half of the maximal activity seen.

The nature of the test: IkB Signaling. The note with it: ABC-DLBCL IkBa-CBG/CBR dual luciferase ratio (green luciferase fused to IkBa over red control in OCI-Ly3 lymphoma cells), 4 h. In short, it runs like this:
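Curves were fitted separately to fusion (green), unfused (red) and ratio luminescence, then classed by r2, magnitude and activity. Cells: OCI-Ly3, 4 h compound plus doxycycline at 37C; 10 uM MG-132 defined full response.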

Setting [1] is: measured here: control luc red channel unless noted.
[2] abbreviates: measured here: IkB-luc green channel.
Setting [3] is: measured here: control luc red channel.

The list shows a part of the results. The main result of the screen is listed elsewhere. These columns were measured beside it and carry no call. The list favours compounds with an active or inconclusive main result. Words in brackets tell the shape of the fitted curve; partial curves, single points and poor fits give uncertain potencies.

In the case of `COc1ccc(Nc2c3c(nc4ccc(NC(=O)/C=C/c5cc(OC)c(OC)c(OC)c5)cc24)CCCC3)cc1OC`, the AC50 under setting [1] was 7.94 µM [falling, full curve]. Take `Cc1ccc2c(CC(=O)Nc3cccc(Cl)c3C)coc2c1`: the half-maximal activity concentration (AC50) under setting [1] is 39.8 µM [falling, single point]. On the same count and under the same terms, then `CCOC(=O)c1c(C)[nH]c(C(=O)C(C)OC(=O)c2cccc(OCc3c(C)noc3C)c2)c1C` (stereo not drawn), with 10 µM [falling, partial curve]; and `Cn1c(=O)n(C/C=C/c2ccccc2)c(=O)c2c1nc1n2CCN1c1ccc(F)cc1`, with 39.8 µM [falling, single point]; and `CCOC(=O)N1CCN(C(=O)c2ccc(CN(c3ccc(C)c(C)c3)S(C)(=O)=O)cc2)CC1`, with 12.6 µM [falling, partial curve]. Take `CCN1C(=O)c2ccccc2Sc2ccc(NC(=O)COc3ccc(Cl)cc3)cc21`: the half-maximal activity concentration (AC50) under setting [1] was 0.01 µM [falling, full curve, poor fit].

For `O=C(C1CCCN(S(=O)(=O)c2cccc3cccnc23)C1)N1CCN(c2ccc(F)cc2)CC1` (stereo not drawn), under setting [1], the AC50 is 10 µM [falling, partial curve]. Take `CCOc1ccc(-n2c(SCC(=O)Nc3cccc(Cl)c3)nc3c(oc4ccccc43)c2=O)cc1`: the concentration at half-maximal activity (AC50) under setting [1] is 10 µM [falling, partial curve]. Same read-out and setting: then `O=S(=O)(C/C(=C/CO)S(=O)(=O)c1ccccc1)c1ccccc1`, with 6.31 µM [falling, partial curve].

With `c1cc2[nH]snc2c2nc(C3CC3)nc12`, the AC50 reads like this: under setting [2], 10 µM [falling, partial curve]; under setting [3], 12.6 µM [falling, partial curve]. On to `CCc1nonc1NC(=O)c1oc2ccc(F)cc2c1C`, for which the AC50 under setting [1] is 0.0794 µM [rising, full curve]. Consider `Cc1cccc(OCC(=O)NC(Cc2c[nH]c3ccccc23)C(=O)O)c1C` (stereo not drawn), for which, under setting [1], the half-maximal activity concentration (AC50) is 25.1 µM [falling, single point]. Regarding `CN1CCN(c2ccccc2NC(=O)c2ccc(-c3ccccc3)cc2)CC1`, the concentration at half-maximal activity (AC50) under setting [1] was 15.8 µM [falling, partial curve]. As for `COc1ccc(-n2cc(-c3ccccc3)c3c(NC4CCCCC4)ncnc32)cc1`, the concentration at half-maximal activity (AC50) under setting [1] was 39.8 µM [falling, single point].

With `Cc1cc(C)nc(SCc2nnc(SCC(=O)Nc3ccc(C)c(C)c3)n2Cc2ccco2)n1`, under setting [1], the AC50 is 31.6 µM [falling, partial curve].

For `COc1cccc(C(=O)NCC(c2ccc3c(c2)OCO3)N2CCOCC2)c1` (stereo not drawn), under setting [1], the AC50 is 3.98 µM [rising, partial curve]. Regarding `CCn1c(C(=O)Nc2ccsc2C(=O)OC)cc2sc(Cl)cc21`, under setting [1], the AC50 was 10 µM [falling, partial curve]. Turning to `O=C(NCc1ccccc1)C(=O)NCC(c1cccs1)S(=O)(=O)c1ccccc1` (stereo not drawn), under setting [1], the concentration at half-maximal activity (AC50) is 0.501 µM [rising, full curve, poor fit]. In the case of `COc1ccc2cc3cc(C(=O)NCc4ccccc4OC)oc3nc2c1`, the AC50 under setting [1] is 0.794 µM [falling, full curve]. Take `CN1CCN(C(=O)c2ccc3c(=O)n(Cc4ccc(Cl)cc4)c(=S)[nH]c3c2)CC1`: under setting [1], the AC50 is 12.6 µM [falling, partial curve]. As to `OC(COCc1ccc(Cl)cc1)CN1CCN(CC(O)COCc2ccc(Cl)cc2)CC1` (stereo not drawn), the AC50 under setting [1] is 12.6 µM [falling, partial curve]. For the compound `CC(=O)c1ccc(N2CCN(C(=O)CCCCn3c(=O)[nH]c4ccsc4c3=O)CC2)cc1`, the concentration at half-maximal activity (AC50) under setting [1] is 10 µM [falling, partial curve].

On to `CCSc1nnc(NC(=O)c2cc(=O)c3cc(C)c(C)cc3o2)s1`, for which, under setting [1], the AC50 was 3.16 µM [rising, partial curve]. Regarding `COc1ccccc1-c1cc(C(=O)Nc2cc(C)nn2-c2ccccc2)no1`, under setting [1], the AC50 was 0.631 µM [falling, full curve]. Take `Cn1nc(-c2ccc(Cl)cc2)c2cc(C(=O)NCc3ccco3)sc21`: the AC50 under setting [1] is 6.31 µM [falling, partial curve].

As to `CCc1cnc2c(c1SCC(=O)c1ccc(Cl)cc1)c(=O)n(C)c(=O)n2C`, the AC50 under setting [1] is 39.8 µM [falling, single point]. Take `CCn1c(Sc2nc(C)nc3scc(-c4cccs4)c23)n[nH]c1=O`: the AC50 under setting [1] was 20 µM [falling, partial curve]. Take `O=C(NCCc1ccc(F)cc1)C(=O)NCC(c1ccco1)S(=O)(=O)c1cccs1` (stereo not drawn): the AC50 under setting [1] was 6.31 µM [falling, single point].

As for `COc1ccc(S(=O)(=O)n2nc(C)c(S(=O)(=O)N3CCC(C)CC3)c2C)cc1OC`, the half-maximal activity concentration (AC50) under setting [1] was 31.6 µM [falling, single point]. As to `Cc1nc2ccccc2c2oc(C(=O)NCCN3CCCCC3C)cc12` (stereo not drawn), the AC50 under setting [1] was 39.8 µM [rising, single point] [measured here: IkB-luc green channel].

`CCc1nnc(NC(=O)CCC(=O)N2CCN(C3CCCCC3)CC2)s1`: under setting [1], the concentration at half-maximal activity (AC50) was 31.6 µM [rising, partial curve] [measured here: IkB-luc green channel].

Take `COc1cc(OC)cc(C(=O)N2CC(=O)Nc3ccc(Cl)cc3C2c2ccccc2)c1` (stereo not drawn): the AC50 under setting [1] is 3.98 µM [falling, partial curve]. Same read-out and setting: then `CCOc1ccccc1NC(=O)C(CC)Sc1nc2ccncc2[nH]1` (stereo not drawn), with 20 µM [falling, single point]. As for `COc1ccc(NCc2cc3cc4c(cc3n(CC(=O)Nc3cc(C)ccc3C)c2=O)OCCO4)cc1`, the concentration at half-maximal activity (AC50) was 39.8 µM [rising, single point] under setting [2] and 20 µM [falling, partial curve] under setting [3].

`CC(C)c1ccc(NS(=O)(=O)c2ccc3nc(-c4ccccc4)[nH]c3c2)cc1`: the AC50 under setting [1] was 31.6 µM [falling, partial curve]. For `CCOc1ccc(CN2CCc3nc(Nc4ccc5c(c4)OCCO5)ncc3C2)cc1`, the AC50 under setting [1] is 15.8 µM [falling, partial curve]. In the case of `COc1ccc(NC(=O)c2ccc3c(c2)sc2nc(-c4ccc(OC)cc4)cn23)cc1`, under setting [1], the concentration at half-maximal activity (AC50) was 15.8 µM [falling, partial curve]. Regarding `O=C(C1CCN(S(=O)(=O)c2cccc3nsnc23)CC1)N1CCc2ccccc2C1`, the AC50 under setting [1] is 15.8 µM [falling, partial curve]. Same read-out and setting: the result for `Cc1ccc(-c2cn(-c3cccc(Cl)c3)c(S(=O)(=O)CC(=O)Nc3ccccc3F)n2)cc1` reads 0.398 µM [falling, partial curve]; that for `CCOc1ccc(C2CC(=O)N(c3cccc(F)c3)C3=C2C(=O)OC3)cc1` (stereo not drawn), 25.1 µM [falling, partial curve]. Same read-out and setting: the result for `Cc1cccc(N2CCN(S(=O)(=O)c3csc(C(N)=O)c3)CC2)c1C` reads 15.8 µM [falling, partial curve].

Regarding `Cc1ccc(N(Cc2cccs2)C(=O)c2ccccc2Cl)cc1`, the half-maximal activity concentration (AC50) under setting [1] was 15.8 µM [falling, partial curve]. Same read-out and setting: the result for `CCCC(c1nnnn1CC1CCCO1)N1CCN(c2cc(Cl)ccc2C)CC1` (stereo not drawn) reads 31.6 µM [falling, partial curve]; that for `C1=C(CCNc2ncnc3nc[nH]c23)CCCC1`, 25.1 µM [falling, partial curve]. `COc1ccc(C(=O)NCCn2ccc3ccccc32)cc1OC`: the AC50 under setting [1] is 10 µM [falling, partial curve]. As for `CCOC(=O)c1ccccc1NC(=O)CSc1nnnn1C1CCCCC1`, the AC50 under setting [1] was 15.8 µM [falling, partial curve].

`COc1ccc(COC(=O)c2n[nH]c3ccccc23)cc1F`: the half-maximal activity concentration (AC50) under setting [1] is 31.6 µM [falling, single point]. As to `O=C(c1ccc(COc2ccc3c(c2)CCC3)o1)N1CCN(c2ccccc2)CC1`, the half-maximal activity concentration (AC50) under setting [1] is 7.94 µM [falling, partial curve]. Take `CCc1ccc2[nH]c(=O)c(C(c3nnnn3CCOC)N3CCN(c4ccccc4F)CC3)cc2c1` (stereo not drawn): under setting [1], the AC50 was 25.1 µM [falling, single point]. Consider `c1ccc(-c2nnc(CSc3nnc(-c4cccs4)o3)o2)cc1`, for which, under setting [1], the concentration at half-maximal activity (AC50) is 25.1 µM [falling, partial curve]. On to `CCOc1cc(Br)cc(C2NC(=O)c3c(sc4c3CCN(C)C4)N2)c1O` (stereo not drawn), for which the concentration at half-maximal activity (AC50) under setting [1] is 12.6 µM [falling, single point]. For the compound `COc1ccc(CNC(=O)CSc2ncc3c(n2)-c2ccc(Cl)cc2N(Cc2ccc(F)cc2)S3(=O)=O)cc1OC`, the AC50 under setting [1] was 31.6 µM [rising, partial curve] [measured here: IkB-luc green channel]. With `CCOC(=O)c1ccc(NC(=O)CSc2nnc3c4ccccc4n(CC)c3n2)cc1`, the half-maximal activity concentration (AC50) under setting [1] was 39.8 µM [rising, single point]. For the compound `O=C(CSc1c2c(nc3ccccc13)CCC2)Nc1ccc(F)cc1`, under setting [1], the AC50 was 12.6 µM [falling, partial curve]. In the case of `CC(C)(C)c1ccc(C(=O)NCC(c2ccco2)S(=O)(=O)c2ccc(F)cc2)cc1` (stereo not drawn), under setting [1], the AC50 is 39.8 µM [falling, single point]. With `CCc1ccc2ncc(C(=O)c3ccc(C)c(C)c3)c(N3CCC(C(N)=O)CC3)c2c1`, under setting [1], the concentration at half-maximal activity (AC50) is 1.58 µM [falling, full curve]. For `Cc1cccc(N2CCN(Cc3nnc(-c4ccccc4C)o3)CC2C)c1` (stereo not drawn), under setting [1], the AC50 is 31.6 µM [falling, partial curve]. Regarding `Cc1ccc(Cn2c(CNC(=O)CCc3ccccc3)nc3cccnc32)cc1`, the concentration at half-maximal activity (AC50) under setting [1] is 0.794 µM [rising, full curve, poor fit]. On to `COc1ccc(C2=Nc3ccc(F)cc3NC(c3cccc(C(F)(F)F)c3)=N2)cc1`, for which, under setting [1], the AC50 was 25.1 µM [falling, partial curve]. The same measure, in the same setting: the result for `COC(=O)c1ccccc1NC(=O)c1cnc(Nc2ccc(OC)cc2)c2ccccc12` reads 2.51 µM [falling, partial curve]; that for `O=C(O)CCC(=O)Nc1sc2c(c1C(=O)Nc1ccccc1)CCCCC2`, 15.8 µM [falling, partial curve].
